We go through one substance from PMC8961534, “Interaction with the Assembly Chaperone Ump1 Promotes Incorporation of the β7 Subunit into Half-Proteasome Precursor Complexes Driving Their Dimerization” (Biomolecules, 2022).

Protein sequences, listed by entry. Tags and fused reporters are not part of them. Residues count along the entry.
UniProt P30657, residues 1-33: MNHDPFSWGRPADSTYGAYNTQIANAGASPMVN

Assay [1] deals with T1, full-length Ump1-6His (S. cerevisiae) (UniProt P38293).
T1 sequence: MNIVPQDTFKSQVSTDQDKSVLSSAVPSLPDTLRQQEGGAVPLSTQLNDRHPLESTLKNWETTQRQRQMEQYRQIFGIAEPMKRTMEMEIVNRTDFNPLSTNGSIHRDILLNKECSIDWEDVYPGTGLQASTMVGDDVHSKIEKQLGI
The experiment in a line: fluorescence microscopy-based on-bead binding assay; Ump1-6His or ^17–148Ump1-6His from E. coli extracts bound to Ni-NTA beads and washed (20 mM imidazole); extracts with mNeonGreen fusion proteins, adjusted by fluorescence, added 1 h, 4 °C; beads imaged, quantified with Fiji (n = 5), empty vector background subtracted; only the target purified.

For assay [2], the target named is ^17–148Ump1-6His (S. cerevisiae) (UniProt P38293). The description is as above.

Results are given in words; binding and its absence hold for the method and conditions named. Some results given as binding are weak or reduced against the parent protein; the word gives no strength. For some assays here: Where a sequence is shown, tags or fusion partners need not be part of it.

Consider “β7 propeptide (^1–33β7) fused to mNeonGreen and 2HA (from UniProt P30657 1-33) (domain or fragment)”, for which the figures for the binding entry in assay [1] and in assay [2] were “binds” and “no binding”, respectively.
